# Source: PMC5656798
# These are yes or no findings as the source states them, for the method shown. Some entries that bind do so weakly or less than the wild type.
# Target: HIV Vif Δ12 (HIV-1) (UniProt P12504)
# Assay: velocity sedimentation through sucrose gradients; 293T lysates (50 mM NaCl, 5 mM Na2EDTA, 150 mM Tris·HCl pH 7.6, 1 % Triton X-100), 10–20–30–40–50 % sucrose step gradient, 60 min at 163 000g; fractions blotted with anti-HA; Vif expressed with an empty vector, CBF-β or CBF-β F68D; also in CBF-β knockdown 293T cells
substance,measurement,value
HIV Vif Δ12 (from UniProt P12504 13-192) (domain or fragment),binding,binds
